Values from PubChem BioAssay AID1159592 (NIAID, 2016)

Assay: 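Toll-like receptor pathway genes that R848 needs to send NF-kB into the nucleus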
System: RAW264.7 macrophages from mouse bearing reporters for p65 (GFP) and the Tnf promoter (mCherry)
Knock-down reagent: single siRNA against mouse genes
Time to read-out: 48 to 72 hours after siRNA transfection
Conditions: R848 TLR ligand for 40 minutes before fixation; dose not given
Read-out: 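Replicate mean of robust z-score relative to negative-control wells, after median/MAD scaling by plate, for the imaged GFP-p65 nuclear-to-cytoplasmic ratio 40 minutes after R848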
Reading the numbers: NF-kB translocation z-score: higher = more p65 moved into the nucleus than in negative-control wells
Rule for the call: 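Active when the replicate-mean z lies above 1.5 or below -1.5; the depositor also grades absolute z in steps of 1, 1.5, 2 and 2.5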
Calls: active = strong change, either direction; inactive = little change
Here is an unselected part of 756 deposited reagents. 147 of all reagents (19%) were called active. 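Active covers both loss and gain of p65 entry; negative z means weaker NF-kB activation, positive means more nuclear p65.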 Reagents against one gene are numbered here. Not given: the amount of reagent.

Nfkb2 #1 | NF-kB translocation z-score, replicate mean = 0.42; activity call = inactive
Nfkb2 #2 | NF-kB translocation z-score, replicate mean = -0.333; activity call = inactive
Nfkb2 #3 | NF-kB translocation z-score, replicate mean = 0.729; activity call = inactive
Nfkb2 #4 | NF-kB translocation z-score, replicate mean = 1.17; activity call = inactive
Nfkb2 #5 | NF-kB translocation z-score, replicate mean = -1.66; activity call = active
Nfkb2 #6 | NF-kB translocation z-score, replicate mean = -0.794; activity call = inactive
Irf5 #1 | NF-kB translocation z-score, replicate mean = -1.22; activity call = inactive
Irf5 #2 | NF-kB translocation z-score, replicate mean = -0.199; activity call = inactive
Irf5 #3 | NF-kB translocation z-score, replicate mean = -0.404; activity call = inactive
Irf5 #4 | NF-kB translocation z-score, replicate mean = 0.615; activity call = inactive
Irf5 #5 | NF-kB translocation z-score, replicate mean = 0.613; activity call = inactive
Irf5 #6 | NF-kB translocation z-score, replicate mean = -2.75; activity call = active
Ube2n #1 | NF-kB translocation z-score, replicate mean = -0.161; activity call = inactive
Ube2n #2 | NF-kB translocation z-score, replicate mean = -1.09; activity call = inactive
Ube2n #3 | NF-kB translocation z-score, replicate mean = 0.455; activity call = inactive
Ube2n #4 | NF-kB translocation z-score, replicate mean = 0.23; activity call = inactive
Ube2n #5 | NF-kB translocation z-score, replicate mean = -1.42; activity call = inactive
Ube2n #6 | NF-kB translocation z-score, replicate mean = 0.101; activity call = inactive

A run of entries of the results above:
Irf5 #6 | NF-kB translocation z-score, replicate mean = -2.75; activity call = active
Ube2n #1 | NF-kB translocation z-score, replicate mean = -0.161; activity call = inactive
Ube2n #2 | NF-kB translocation z-score, replicate mean = -1.09; activity call = inactive
Ube2n #3 | NF-kB translocation z-score, replicate mean = 0.455; activity call = inactive
Ube2n #4 | NF-kB translocation z-score, replicate mean = 0.23; activity call = inactive

Further reagents follow:
Tlr6 #1 | NF-kB translocation z-score, replicate mean = 0.0128; activity call = inactive
Tlr6 #2 | NF-kB translocation z-score, replicate mean = 0.0373; activity call = inactive
Tlr6 #3 | NF-kB translocation z-score, replicate mean = -1.38; activity call = inactive
Tlr6 #4 | NF-kB translocation z-score, replicate mean = 0.028; activity call = inactive
Tlr6 #5 | NF-kB translocation z-score, replicate mean = 0.856; activity call = inactive
Tlr6 #6 | NF-kB translocation z-score, replicate mean = 0.0379; activity call = inactive
Irf9 #1 | NF-kB translocation z-score, replicate mean = -0.898; activity call = inactive
Irf9 #2 | NF-kB translocation z-score, replicate mean = -1.39; activity call = inactive
Irf9 #3 | NF-kB translocation z-score, replicate mean = 0.416; activity call = inactive
Irf9 #4 | NF-kB translocation z-score, replicate mean = 0.785; activity call = inactive
Irf9 #5 | NF-kB translocation z-score, replicate mean = 0.356; activity call = inactive
Irf9 #6 | NF-kB translocation z-score, replicate mean = -0.0298; activity call = inactive
Mapk13 #1 | NF-kB translocation z-score, replicate mean = -1.76; activity call = active
Mapk13 #2 | NF-kB translocation z-score, replicate mean = -2.44; activity call = active
Mapk13 #3 | NF-kB translocation z-score, replicate mean = 0.319; activity call = inactive
Mapk13 #4 | NF-kB translocation z-score, replicate mean = -0.399; activity call = inactive
Mapk13 #5 | NF-kB translocation z-score, replicate mean = 0.712; activity call = inactive
Mapk13 #6 | NF-kB translocation z-score, replicate mean = -0.939; activity call = inactive
Pik3cb #1 | NF-kB translocation z-score, replicate mean = -0.341; activity call = inactive
Pik3cb #2 | NF-kB translocation z-score, replicate mean = -1.99; activity call = active
Pik3cb #3 | NF-kB translocation z-score, replicate mean = -0.38; activity call = inactive
Pik3cb #4 | NF-kB translocation z-score, replicate mean = -0.595; activity call = inactive
Pik3cb #5 | NF-kB translocation z-score, replicate mean = -3.71; activity call = active
Pik3cb #6 | NF-kB translocation z-score, replicate mean = 0.121; activity call = inactive
Map3k1 #1 | NF-kB translocation z-score, replicate mean = 1.97; activity call = active
Map3k1 #2 | NF-kB translocation z-score, replicate mean = -1.99; activity call = active
Map3k1 #3 | NF-kB translocation z-score, replicate mean = 0.216; activity call = inactive
Map3k1 #4 | NF-kB translocation z-score, replicate mean = 0.176; activity call = inactive
Map3k1 #5 | NF-kB translocation z-score, replicate mean = 0.331; activity call = inactive
Map3k1 #6 | NF-kB translocation z-score, replicate mean = 0.379; activity call = inactive
Irak1 #1 | NF-kB translocation z-score, replicate mean = -1.78; activity call = active
Irak1 #2 | NF-kB translocation z-score, replicate mean = -0.068; activity call = inactive
Irak1 #3 | NF-kB translocation z-score, replicate mean = -1.19; activity call = inactive
Irak1 #4 | NF-kB translocation z-score, replicate mean = -1.23; activity call = inactive
Irak1 #5 | NF-kB translocation z-score, replicate mean = 0.0191; activity call = inactive
Irak1 #6 | NF-kB translocation z-score, replicate mean = -0.757; activity call = inactive
